Assay results from paper doi:10.1101/2024.09.16.613291.

Columns and labels:
[1] = molecular target: B55 subunit of the purified PP2A:B55 holoenzyme; assay: cryo-EM structure
[2] = molecular target: B55 loop-less (B55LL), residues 126-164 replaced with NG; assay: NMR titration

| Binder | binding [1] | binding [2] |
| --- | --- | --- |
| p107 interdomain region (residues 612-687) (domain or fragment, UniProt P28749 612-687) MPMSPLMHPRVKEVRTDSGSLRRDMQPLSPISVHERYSSPTAGSAKRRLFGEDPPKEMLMDKIITEGTKLKIAPSS | binds | binds |
| RSSNDYTSQMYSAKPYAHILSVPVSETAYPGQTQYQTLQQTQPYAVYEE (domain or fragment, UniProt Q99504 62-108) [Eya3 PP2A:B55 interaction domain (aa 62-108) with C-terminal EE] | binds | binds |

No constants are given. Whether binding was seen depends on the method and setting. Binding calls can cover weak binding; strength is not graded here.
